These results are taken from the supplement of paper PMC10338343.

± gives the standard deviation. The entries are a selection whose mix differs from that of the whole data set. Many entries were measured with a wide error.
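Also: 1 nM active piRISC with 0.1 nM target library at 33 °C single turnover.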

The test relates to MIWI (PIWIL1) piRISC loaded with L1MC piRNA (30 nt). Briefly: pre-steady-state target cleavage rate (min^-1); MIWI and MILI are mouse PIWI proteins and EfPiwi is from a freshwater sponge; tags in brackets are library labels; higher = faster piRNA-guided slicing of the target. Conditions: guide: L1MC piRNA 5'p-UAACUAAAUACUAUGCAAGCUGUAGGUCCU; auxiliary factor: none (no GTSF1). The essentials:
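Three pooled Cleave-'n-Seq trials supplied the data, with k3 capped at 0.0001 min^-1. In each, […] transcribed, DNA-blocked target RNA library and 1 nM active affinity-purified piRISC with one synthetic guide reacted in HEPES–potassium acetate buffer at 33 °C for 0–8 or 0–960 min, with or without 500 nM GTSF1 partner protein. Uncleaved targets were sequenced and normalised to depth and to weakly complementary targets. A burst-and-steady-state fit provided the pre-steady-state cleavage rate.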
UGGACCUACAGCUUCCAUAGUAUUUAGAAA: the “pre-steady-state target cleavage rate” value is 0.00091 ± 0.0048.

On to UCGACCUUCAGCUUGCAUAGUAUUUUCAAA, for which the “pre-steady-state target cleavage rate” value amounted to 0.00278 ± 0.0034.

Consider UCGACCUACAGCUUGGAUAGUAUUUACAAA, for which the “pre-steady-state target cleavage rate” value stood at 0.0022 ± 0.0027.

As for UGGACCUACUCGUUGCAUAGUAUUUAGAAA, the “pre-steady-state target cleavage rate” value was 0.00216 ± 0.0024.

With AGGACCUACAGCUUGCAUAGAUAUUAGUAA, the “pre-steady-state target cleavage rate” value worked out at 0.000832 ± 0.01.

Turning to UCCUGGAUGUCGAACCAUAGUAUAUAGUAA, the “pre-steady-state target cleavage rate” value turned out to be 0.000105 ± 0.021.

Turning to “UCCACCUACAGCUUGCUAUCAUAAAUCAAA [g15:g27:cont:t1A]”, the “pre-steady-state target cleavage rate” value amounted to 0.000576 ± 0.013.

In the case of UCCACCUACAGCUUGCAUAGUAUUAUCAAA, the “pre-steady-state target cleavage rate” value is 0.0012 ± 0.0072.

As to UGGACCUACAGCUUGCUUAGUAUUUUCAAA, the “pre-steady-state target cleavage rate” value was 0.00151 ± 0.0031.

With UCCUGGAUGUCGAACGAUAGUAAAUAGUUA, the “pre-steady-state target cleavage rate” value was found to be 0.000235 ± 0.016.

As to “UCCUGGAUGUCGUUGCAUAGUAUUUAGUUG [g2:g18:cont:t1G]”, the “pre-steady-state target cleavage rate” value stood at 0.00159 ± 0.0038.

Take UCCACCUAGUGCUUGCAUAGUAUUUACAAA: the “pre-steady-state target cleavage rate” value was 0.00181 ± 0.0019.

In the case of UCCUGGAUGUCGAACGAAACUAUUUAGUUA, the “pre-steady-state target cleavage rate” value turned out to be 0.000171 ± 0.028.

Consider UCGACCUACAGCUUGCAAUGUAUUUUCAAA, for which the “pre-steady-state target cleavage rate” value came to 0.000246 ± 0.012.

With UCCACCUACAGCUUGCAUAGUAUAUUCAAA, the “pre-steady-state target cleavage rate” value was 0.000723 ± 0.0096.

Regarding UCCUGGAUGUCCUUGCAAAGUAAUUAGUUA, the “pre-steady-state target cleavage rate” value was found to be 0.00124 ± 0.0051.

In the case of “UCCACCUACAGCUUGCAUAGAUAAAUCAAA [g11:g27:cont:t1A]”, the “pre-steady-state target cleavage rate” value stood at 0.000802 ± 0.01.
